Reference: PubChem BioAssay AID587 (National Center for Advancing Translational Sciences (NCATS), 2007)
In all, about 59,000 compounds went through this assay and about 35 (0.06%) were called active. The shares of active, inactive and inconclusive entries below differ from those in the screen. Rule as the data show it: active = max dye-equivalent concentration above about 10 nM; inconclusive = between about 1.1 nM and that limit; inactive = weaker than that.

assay: qHTS Assay for Spectroscopic Profiling in Texas Red Spectral Region; conditions: Compound fluorescence, Texas Red channel, 547/618 nm; stronger effect = higher value
Text: NIH Molecular Libraries Screening Centers Network [MLSCN] NIH Chemical Genomics Center [NCGC] […] Occasionally, the artifactual effect may originate from the compound#s own spectral or other biophysical properties which generally tend to track its assay concentration. Pre-screening/profiling the library with respect to the compounds# spectral properties should help one exclude false positives early on. While the most informative fluorescent profiling data set is obtained by performing a full excitation and emission scan of each well by using a monochromator-based plate reader, such an approach is practical only on a very limited scale as scanning each well requires long time. An alternative approach, applied here, is to perform plate reader scans using selected excitation and emission wavelength pairs to generate a multidimensional relational database that correlates compound concentration and the respective relative fluorescence intensity at a given wavelength set. A standard curve of Texas Red (TR) present on each plate as six-point concentration series, was used to compute a normalized fluorescence response, termed dye-equivalent concentration, for each compound at each concentration.
NCGC Assay Protocol Summary: Buffer: 100 mM Tris buffer, pH 8.0 Dye standard plate: The wells in columns 1 through 4 of a Kalypsys polypropylene 1536-well compound plate were filled with standard solutions of fluorophore corresponding to the spectral region of interest. Solutions of TR were placed in the following wells: U1, V1: 3 mM, U2, V2: 300 uM, U3, V3: 30 uM, U4, V4: zero (DMSO), W1, X1: 3 uM, W2, X2: 900 nM, W3, X3: 300 nM, W4, X4: zero (DMSO). Assay Steps: Six uL of buffer were dispensed to 1536-well Greiner black plates. Compounds and dye standards (23 nL) were transferred via Kalypsys PinTool. The plates were incubated for 15 min at room temperature, and then read on ViewLux (Perkin-Elmer) High-throughput CCD imager using 547 nm and 618 nm excitation and emission filter set. Keywords: NIH Roadmap, MLSCN, MLI, MLSMR, qHTS, NCGC, Texas Red, Fluorescent Profiling.

SMILES	max dye-equivalent concentration
Cc1ccccc1CCNC(=O)C1CCN(S(=O)(=O)c2ccc(-n3cnnn3)cc2)CC1	inconclusive: 1.8 nM
CC1CC(=O)C2=C(C1)Nc1ccccc1N(C(=O)COc1ccccc1)C2c1ccco1 (centres undefined)	inconclusive: 1.7 nM
O=C(c1cccs1)N(CC1CCCO1)c1nc(-c2ccccc2)cs1 (centres undefined)	inconclusive: 1.1 nM
COc1cccc(C=NCCNC(=O)c2nonc2N)c1O	inconclusive: 1.3 nM
Cc1oc(-c2ccccc2)[n+]([O-])c1C	inconclusive: 1.5 nM
CCN1CCN(c2c(Cl)cccc2NC(=O)c2ccc3c(c2)OCCO3)CC1	inconclusive: 1.4 nM
Cc1ccc(NS(=O)(=O)c2cc(C(=O)N3CCOCC3)ccc2C)cc1	inconclusive: 1.7 nM
CCC[C@H]1C(=O)N2C(N(C)C)=Nc3ccc(C)cc3N2C1=O	inactive
N#CC1=C(N)Oc2nc(-c3ccccc3)[nH]c2C1c1cccnc1 (centres undefined)	inconclusive: 1.1 nM
CCCCOc1ccc(C(=O)N2CCCCCC2)cc1	inconclusive: 3.1 nM
CCCCN(CC)CCNS(=O)(=O)c1ccc2c(c1)oc(=O)n2C	inconclusive: 1.3 nM
Cc1coc2cc3oc(=O)c4c(c3cc12)CCC4	inconclusive: 1.2 nM
COc1ccc(NS(=O)(=O)c2cc(C)ccc2NC(=O)c2cc(C)oc2C)cc1	inconclusive: 1.9 nM
Cc1cc(C)n(-c2nc3c(c(=O)[nH]c(=O)n3C)n2Cc2ccccc2)n1	inactive
CC(C)(C)n1nnnc1C(c1cccs1)N1CCN(Cc2ccccc2)CC1 (centres undefined)	inconclusive: 1.2 nM
CC(C)C(C)(C#N)NC(=O)CSc1nnc(-c2ccncc2)n1Cc1ccccc1 (centres undefined)	inconclusive: 2.3 nM
Cc1ccc2[nH]c3c(c2c1)CN(C(=O)CN1CCSCC1)CC3	inconclusive: 1.4 nM
O=C(NCC1CCCO1)c1nn2c(c1Cl)NC(c1ccc(F)cc1)CC2C(F)(F)F (centres undefined)	inconclusive: 1.3 nM
O=C(NC1CCCCC1)N1CCN(C2CCCCC2)CC1	inconclusive: 1.5 nM
Cc1cc(N2CCCC2=O)cc(C)c1CN1C(=O)c2ccccc2C1=O	inconclusive: 1.4 nM
COC(=O)C1=C(C)NC(C)=C(C(=O)OC)C1c1ccc(NC(C)=O)cc1	inconclusive: 1.3 nM
Cn1c(C(=O)N2COCC2(C)C)cc2c(=O)n3ccccc3nc21	inactive
Cn1c(=O)c(C(=O)Nc2ccccn2)c(O)c2ccccc21	inconclusive: 1.7 nM
COc1cc2[nH]c(=O)n(CCCC(=O)N3CC=C(c4ccccc4)CC3)c(=O)c2cc1OC	inconclusive: 1.2 nM

Some of the entries above in another layout.
SMILES | max dye-equivalent concentration
Cc1ccccc1CCNC(=O)C1CCN(S(=O)(=O)c2ccc(-n3cnnn3)cc2)CC1 | inconclusive: 1.8 nM
O=C(NC1CCCCC1)N1CCN(C2CCCCC2)CC1 | inconclusive: 1.5 nM
